In US20200055934A1:
No constants are given. Whether binding was seen depends on the method and setting. Some results given as binding are weak or reduced against the parent protein; the word gives no strength.

By UniProt entry, the sequences of proteins in these tests, tags left out. Where a name states a change or a piece, a line headed by the entry shows the natural chain unless it says otherwise.
UniProt Q15109: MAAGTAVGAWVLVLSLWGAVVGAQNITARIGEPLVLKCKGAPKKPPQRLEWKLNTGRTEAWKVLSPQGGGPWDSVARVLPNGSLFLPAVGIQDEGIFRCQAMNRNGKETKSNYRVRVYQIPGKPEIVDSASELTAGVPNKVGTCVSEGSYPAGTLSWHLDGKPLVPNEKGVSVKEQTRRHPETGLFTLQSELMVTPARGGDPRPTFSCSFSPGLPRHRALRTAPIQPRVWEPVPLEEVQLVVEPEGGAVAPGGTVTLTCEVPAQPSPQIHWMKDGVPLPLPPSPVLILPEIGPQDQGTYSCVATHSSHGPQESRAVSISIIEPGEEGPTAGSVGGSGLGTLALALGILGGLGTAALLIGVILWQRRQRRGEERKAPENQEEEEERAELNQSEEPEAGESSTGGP

Target: Receptor for Advanced Glycation Endproducts (RAGE), human, full length (human) (UniProt Q15109)
Assay: stated in the internalisation example; binding assay not described

binding: binds
B1: AA4 anti-RAGE antibody (antibody, V domains shown)
VH: QVQLQQSGAELVKPGASVKLSCKTSGYTFTNYYIYWVIQRPGHGLEWIGEINPSNGGTNFSERFKSRAKLTVDKPSSTAYMQLSSLTSDDSAVYYCTTNFDYWGQGSTLTVSS
VL: DVLMTQTPLSLPVSLGDQASMSCRSSQNIVHNNGNTYLQWYLQKPGQSPKLLIYQVSNRFFGVPDRFSGSGSGTDFTLKISRVEAEDLGVYYCFQGSHLPLTFGAGTKLELK
